Patent publication US7964180B2, “Method for enhancing effects of colorants and conditioners” (E. I. du Pont de Nemours and Company, priority 2005, dated 2011)

B1: PNTSQLSTGGGRTNAADHPKCGGGNTSQLSTGGGRTNAADHPKCGGGNTSQLSTGGGRTNAADHPKC (protein)
chain: PNTSQLSTGGGRTNAADHPKCGGGNTSQLSTGGGRTNAADHPKCGGGNTSQLSTGGGRTNAADHPKC
modifications: Multi-Copy Hair-Binding Peptide

Assay: Spectrophotometric color retention (Delta E, CIELAB) of dyed hair after shampoo treatment, peptide as sealant
Set-up: species or system human
Details: Red Dye No. 33 0.07 wt %, one shampoo treatment, larger = better color retention

Row | Molecule | Delta E (peptide conc. 0.25 wt %) | Delta E (peptide conc. 0.95 wt %)
1 | IPWWNIRAPLNA (Hair-binding Peptide) [A09] | 25.6 | 34.8
2 | Random: random peptide used as comparative sealant; sequence not printed in the text (KSKPYPYPPPLPVRPWT; Random Peptide Sequence) [reference compound] | 10.8 | 
3 | TPPELLHGDPRSC (Hair-binding peptide haveing a cysteine residue added to the C-terminus) [IB5-Cys] | 20.4 | 
4 | B1 | 19.8 | 
